Laboratory results from patent US20230044381A1.
These are yes or no findings as the source states them, for the method shown. Binding calls can cover weak binding; strength is not graded here.

Molecular target: monkey PD1 on CHO cells (CHO-cynoPD1) (monkey)
Experiment: flow cytometry on CHO-cynoPD1 cells

B1: PD-1-76-C2 (antibody, V domains shown)
VH: QIQLVQSGPELKKPGETVKISCKASGYTFTNYGMNWVKQAPGKGLKWMGWINTHTGEPTYADDFKGRFAFSLETSASTAYLQIKNLKNEDVATYFCTKEGEGIGFAYWGQGTLVTVSA
VL: DVLMTQTPLSLPVSLGDQASISCRSSQSIVYSNGKTYLEWYLQKPGQSPKLLIYKVSNRFSGVPDRFSGSGSGTDFTLKISRVEAEDLGVYYCFQGSHVPNTFGGGTKLEIKR
- binding: binds

B2: PD-1-112-C2 (antibody, V domains shown)
VH: QVQLQQPGAELVKPGASVKLSCKASGYTFTTYYMYWVKQRPGQGLEWIGGINPSNGGTNFNEKFKSKATLTVDKSSSTAYMQLSSLTSEDSAVYYCTRRDSNYDGGFDYWGQGTTLTVSS
VL: DIVLTQSPASLAVSLGQRATISCRASKSVSTSGYSYMHWYQQKPGQPPKLLIYLAYHLESGVPARFSGSGSGTDFTLNIHPVEEEDAATYYCQHSWELPITFGSGTKLEIKR
- binding: binds
